Data on two substances can be found in paper PMC4705653.

Amino acid sequences for entries named in this document (tags omitted).
UniProt P06243: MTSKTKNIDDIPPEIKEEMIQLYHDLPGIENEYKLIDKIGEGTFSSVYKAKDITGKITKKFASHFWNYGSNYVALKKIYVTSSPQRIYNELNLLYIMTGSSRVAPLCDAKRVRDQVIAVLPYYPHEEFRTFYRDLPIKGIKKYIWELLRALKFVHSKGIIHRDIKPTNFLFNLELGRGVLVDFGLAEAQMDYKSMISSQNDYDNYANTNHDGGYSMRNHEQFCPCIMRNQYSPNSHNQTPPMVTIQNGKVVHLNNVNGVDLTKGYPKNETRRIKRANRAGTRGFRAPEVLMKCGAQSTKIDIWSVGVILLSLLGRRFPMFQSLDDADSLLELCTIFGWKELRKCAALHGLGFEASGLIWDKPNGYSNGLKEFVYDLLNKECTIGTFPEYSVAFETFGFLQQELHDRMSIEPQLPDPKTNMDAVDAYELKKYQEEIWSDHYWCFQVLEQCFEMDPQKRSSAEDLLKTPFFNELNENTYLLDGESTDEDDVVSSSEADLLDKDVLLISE
UniProt P29469: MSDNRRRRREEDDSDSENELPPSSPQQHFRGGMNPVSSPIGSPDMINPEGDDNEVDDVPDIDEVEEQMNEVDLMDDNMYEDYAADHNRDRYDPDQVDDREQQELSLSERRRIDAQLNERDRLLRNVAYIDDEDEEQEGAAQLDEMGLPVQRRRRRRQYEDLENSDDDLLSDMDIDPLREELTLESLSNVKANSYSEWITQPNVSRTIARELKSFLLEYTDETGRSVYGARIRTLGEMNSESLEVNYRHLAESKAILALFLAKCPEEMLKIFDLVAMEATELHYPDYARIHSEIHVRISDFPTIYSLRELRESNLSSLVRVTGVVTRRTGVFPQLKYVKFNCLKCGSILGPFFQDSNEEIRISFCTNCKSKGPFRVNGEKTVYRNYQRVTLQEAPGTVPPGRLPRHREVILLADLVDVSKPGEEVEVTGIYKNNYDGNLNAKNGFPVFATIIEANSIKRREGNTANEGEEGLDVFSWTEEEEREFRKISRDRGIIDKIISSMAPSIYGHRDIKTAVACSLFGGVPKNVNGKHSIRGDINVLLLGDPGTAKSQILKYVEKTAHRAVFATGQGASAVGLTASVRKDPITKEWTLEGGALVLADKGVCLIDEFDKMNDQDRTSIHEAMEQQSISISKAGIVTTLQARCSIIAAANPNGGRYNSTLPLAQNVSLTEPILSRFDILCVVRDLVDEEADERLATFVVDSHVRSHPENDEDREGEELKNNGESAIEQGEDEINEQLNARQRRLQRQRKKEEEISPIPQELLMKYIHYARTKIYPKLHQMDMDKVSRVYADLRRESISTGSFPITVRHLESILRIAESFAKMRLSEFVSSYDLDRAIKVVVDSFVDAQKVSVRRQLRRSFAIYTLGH
UniProt P32354: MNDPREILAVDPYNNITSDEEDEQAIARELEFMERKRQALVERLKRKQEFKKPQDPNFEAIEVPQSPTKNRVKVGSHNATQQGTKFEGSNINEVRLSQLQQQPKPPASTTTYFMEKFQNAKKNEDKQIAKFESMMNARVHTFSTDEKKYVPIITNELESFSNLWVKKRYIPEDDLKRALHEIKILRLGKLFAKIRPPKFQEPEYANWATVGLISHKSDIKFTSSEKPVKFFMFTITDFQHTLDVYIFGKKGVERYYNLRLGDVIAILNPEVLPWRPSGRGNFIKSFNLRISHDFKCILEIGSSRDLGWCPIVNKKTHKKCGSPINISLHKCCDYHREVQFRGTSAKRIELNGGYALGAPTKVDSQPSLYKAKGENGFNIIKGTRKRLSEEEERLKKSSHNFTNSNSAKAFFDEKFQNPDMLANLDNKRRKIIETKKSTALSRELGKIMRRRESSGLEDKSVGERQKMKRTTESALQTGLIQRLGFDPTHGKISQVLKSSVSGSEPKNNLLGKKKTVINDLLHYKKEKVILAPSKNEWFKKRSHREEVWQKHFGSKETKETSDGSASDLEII
UniProt P22336: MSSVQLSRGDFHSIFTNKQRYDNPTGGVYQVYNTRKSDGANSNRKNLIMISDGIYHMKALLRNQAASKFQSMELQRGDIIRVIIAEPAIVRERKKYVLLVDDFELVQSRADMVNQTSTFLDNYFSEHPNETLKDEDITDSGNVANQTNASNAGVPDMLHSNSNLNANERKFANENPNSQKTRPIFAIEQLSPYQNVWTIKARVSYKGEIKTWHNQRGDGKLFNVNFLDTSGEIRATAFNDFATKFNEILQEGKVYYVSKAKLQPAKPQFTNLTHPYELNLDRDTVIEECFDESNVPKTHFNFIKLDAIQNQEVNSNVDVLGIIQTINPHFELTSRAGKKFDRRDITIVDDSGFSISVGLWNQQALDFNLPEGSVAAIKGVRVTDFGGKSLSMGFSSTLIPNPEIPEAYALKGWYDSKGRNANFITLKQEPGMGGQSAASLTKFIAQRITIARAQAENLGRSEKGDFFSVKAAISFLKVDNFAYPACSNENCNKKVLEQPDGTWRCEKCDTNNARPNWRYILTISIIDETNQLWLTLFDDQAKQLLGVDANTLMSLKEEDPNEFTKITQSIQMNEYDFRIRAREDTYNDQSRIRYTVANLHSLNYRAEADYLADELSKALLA

Results are given in words; binding and its absence hold for the method and conditions named. For some assays here: In cells and extracts the contact can be indirect. Some entries that bind do so weakly or less than the wild type.

One experiment addresses GST-Cdc7 (budding yeast) (UniProt P06243). In words: pull-down; 30 pmol GST-tagged protein on Glutathione Sepharose, varying concentrations of 32P-labelled PKA-tagged protein in solution; GST binding buffer (40 mM Tris–HCl pH 7.5, 100 mM NaCl, 0.1 mM EDTA, 10% glycerol, 0.1% Triton X-100, 1 mM DTT, 0.1 mg/ml BSA), 100 μl, 30°C, 10 min; SDS-PAGE and phosphorimaging; in some panels with 5 mM ATP or ATPγS, or with a third labelled protein (Mcm10, Sld3) added; both purified.

Experiment [1] concerns the target Mcm2 (endogenous, precipitated with anti-Mcm2; read by the paper as the loaded Mcm2–7 complex) (budding yeast (endogenous in mcm10-1-aid cells)) (UniProt P29469). In words: co-IP; mcm10-1-aid cells released from G1 (α-factor) into S phase at 25°C, with or without auxin (Mcm10 depletion); extracts treated with Benzonase, no cross-linker, no hydroxyurea; precipitated with anti-Mcm2, western blot of the partner.

As to “PKA-Mcm10 (radiolabeled) (from UniProt P32354 1-571)”, in the experiment with GST-Cdc7 (budding yeast), the binding result was “binds weakly”.
Consider Rfa1–5FLAG (from UniProt P22336 1-621), for which, in experiment [1], the binding entry is recorded as “binds”.
